Paper PMC10442049
Results are given in words; binding and its absence hold for the method and conditions named. In cells and extracts the contact can be indirect. Some entries that bind do so weakly or less than the wild type. Sequences can lack the tags named with a protein.

Chains of the proteins cited; added tags and fusions are not shown.
UniProt F4JL11: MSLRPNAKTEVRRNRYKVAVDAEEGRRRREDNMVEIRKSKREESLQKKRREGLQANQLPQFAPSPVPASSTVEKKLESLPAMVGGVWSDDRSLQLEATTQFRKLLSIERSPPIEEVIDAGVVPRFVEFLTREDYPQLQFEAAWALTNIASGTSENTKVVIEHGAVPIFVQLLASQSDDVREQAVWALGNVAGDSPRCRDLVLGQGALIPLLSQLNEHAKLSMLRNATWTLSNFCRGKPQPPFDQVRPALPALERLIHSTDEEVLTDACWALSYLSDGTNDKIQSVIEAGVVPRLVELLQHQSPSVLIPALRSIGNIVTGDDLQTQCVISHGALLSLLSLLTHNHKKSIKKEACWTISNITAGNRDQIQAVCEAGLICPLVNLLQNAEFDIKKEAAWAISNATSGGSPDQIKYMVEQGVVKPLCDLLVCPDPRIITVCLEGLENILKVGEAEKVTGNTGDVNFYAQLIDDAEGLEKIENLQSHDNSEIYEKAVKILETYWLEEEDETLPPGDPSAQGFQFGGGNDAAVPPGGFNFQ
UniProt Q96321: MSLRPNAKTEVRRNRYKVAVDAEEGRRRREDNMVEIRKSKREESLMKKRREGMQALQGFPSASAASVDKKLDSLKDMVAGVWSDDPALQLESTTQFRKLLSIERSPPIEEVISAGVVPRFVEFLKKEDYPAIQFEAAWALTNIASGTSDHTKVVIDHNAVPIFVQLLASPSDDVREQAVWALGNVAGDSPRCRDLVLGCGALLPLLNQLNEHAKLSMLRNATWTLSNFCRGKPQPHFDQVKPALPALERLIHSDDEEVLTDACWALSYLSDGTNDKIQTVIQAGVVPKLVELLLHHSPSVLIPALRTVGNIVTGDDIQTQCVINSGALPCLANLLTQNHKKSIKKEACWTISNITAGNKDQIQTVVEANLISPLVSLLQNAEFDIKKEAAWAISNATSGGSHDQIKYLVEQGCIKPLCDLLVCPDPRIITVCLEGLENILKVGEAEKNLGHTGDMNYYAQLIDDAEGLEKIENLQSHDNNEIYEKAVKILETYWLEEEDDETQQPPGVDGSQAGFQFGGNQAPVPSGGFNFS

B1: SWO1-C (aa 1001-2038) fused to a luciferase fragment (split-LUC) (domain or fragment, UniProt F4JP43 1001-2037)
chain: CVVRAQKSLVATPETPLQSRPGKTETPSAGHTNSKESSGTNPMIPLSSPLWSLSTSVDTLQSSSVQRGSAATHQPLLSASHAHQTPPTQNIVGHNTPWMSPLPFRNAWLASQQTSGFDVGSRFPVYPITDPVKLTPMKESSMTLSGAKHVQSGTSSNVSKVTPTLEPTSTVVAPAQHSTRVKSRKRKKMPVSVESGPNILNSLKQTELAASPLVPFTPTPANLGYNAGTLPSVVSMTAVPMDLVSTFPGKKIKSSFPSPIFGGNLVREVKQRSVLSEDTIEKLKEAKMHAEDASALATAAVSHSEYVWKQIEQQSHAGLQPETQDRLASAAVAIAAAAAVAKAAAAAANVAANAALQAKLMAEEASLPNASDQGLPKSYDSILPGQGTPASILKGEGAVVNSSSVLIAAREASKKRVEAATAATKRAENMDSIVKAAELASEAVSQAGILVSMGHPPLLNKLVEAGPSNYWRQAQESQEVQPCKTVVLEKETVSTSEGTFAGPKIVQTEFGGSVNTADGVSGPVPATGKLKGQEGDKYADLAKNNDVVFEPEVGSKFSIDAQQTIKATKNEDIKEGSNVEVFKEEPGLRTAWYSANVLSLEDDKAYVLFSDLSVEQGTDKLKEWVALKGEGDQAPKIRPARSVTALPYEGTRKRRRAALGDHIWKIGDRVDSWVHDSWLEGVITEKNKKDENTVTVHFPAEEETLTIKAWNLRPSLVWKDGKWIECSSSGETISSSHEGDTPKEKRPRLGTPALVAEVKDTSMKIVDDPDLGKPPQTGVLNLGVSENTFNIGKSTREENKPDPLRMKRTGLQKQGSKVIFGVPKPGKKRKFMDVSKHYVSEASTKTQERKEPVKPVRSIVPQNSGIGSWKMPSKTISIEKQTTISRPKTFKPAPKPKEKPGATARIIPRKDSRNTTASDMESDESAENRGPGSGVSFKGTVEEQTTSSSHDTGSKNSSSLSTNKGRVAPTAGRLAKIEEDKALAENSSKTSEGMEPRRSIRRIQPTSRLLEGLQTSMMTSKIPSVSHSKSHLSQSKK

Legend:
[1] = biological target: IMPA2 fused to a luciferase fragment (split-LUC) (Arabidopsis thaliana) (UniProt F4JL11); assay: split reporter; split luciferase complementation in N. benthamiana leaves, Agrobacterium infiltration, luciferase activity 48 h after infiltration
[2] = biological target: IMPA1 fused to a luciferase fragment (split-LUC) (Arabidopsis thaliana) (UniProt Q96321); assay: as above

Molecule	binding [1]	binding [2]
SWO1 fused to a luciferase fragment (split-LUC) (from UniProt F4JP43 1-2037)	binds	binds
B1	binds	binds
